Reference: PubChem BioAssay AID686937 (Drosophila RNAi Screening Center, 2013)
The deposit covers about 23,000 reagents; shown is an unselected part of those that have a named target and a result. 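Reduced-secretion tags in replicate 1 do not always agree with the z-scores; no criterion for assigning the tags was given.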 The numbers tell different reagents against one gene apart. A plus sign joins genes that one reagent is predicted to hit. Not given: the amount of reagent.

Purpose: 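Genes whose loss weakens secretory pathway function in fly cells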 (primary screen)
System: Drosophila S2 cells expressing secreted horseradish peroxidase
Reagents: long dsRNA against Drosophila genes
Duration: about 5.5 days (5 days dsRNA, then 12 h reporter induction)
Conditions: reporter expression induced after 5 days of dsRNA, read 12 h later; inducer not stated
Detection: 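After 5 days of dsRNA and 12 h of reporter induction, medium peroxidase read by chemiluminescence and scored as per-plate z-score; higher values mean more reporter released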
Scale: z-score: higher = more reporter secreted into medium

no.	Target gene	dsRNA no.	z-score, replicate 1	z-score, replicate 2	phenotype, replicate 1
1	sls (sallimus)	1	0.16	0.19	
2	sls (sallimus)	2	-0.04	0.32	
3	sls (sallimus)	3	0.33	0.01	
4	cno (canoe)	1	0.12	0.27	
5	cno (canoe)	2	-2.86	-1.99	reduced secretion
6	CG31777	1	0.43	0.42	
7	Ir85a (Ionotropic receptor 85a)	1	0.22	0.1	
8	CG9132	1	0.32	0.61	
9	CG42818	1	0	0.27	
10	Son (Son RNA binding protein)	1	0.38	0.46	
11	frac (faulty attraction)	1	0.53	0.42	
12	ntc (nutcracker)	1	0.34	0.29	
13	GlcAT-S (Glucuronyltransferase S)	1	0.22	0.35	
14	CG34282	1	0.39	0.51	
15	Adk3 (Adenosine kinase 3)	1	0.15	0.26	
16	CR31032 (pseudo)	1	-0.25	0.64	
17	Bub1 (Bub1 kinase)	1	0.32	0.36	
18	AANATL2 (Arylalkylamine N-acetyltransferase-like 2)	1	0.52	0.32	
19	Obp50c + Obp50b	1	0.13	0.25	
20	Tbcb (Tubulin-binding cofactor B)	1	0.48	0.1	
21	Cyp9h1 (Cytochrome P450 9h1)	1	0.2	0.39	
22	cer (crammer)	1	0.32	0.08	

Quoted from the listing (3 entries):
no.	Target gene	dsRNA no.	z-score, replicate 1	z-score, replicate 2	phenotype, replicate 1
1	sls (sallimus)	1	0.16	0.19	
2	sls (sallimus)	2	-0.04	0.32	
3	sls (sallimus)	3	0.33	0.01	

More records:
no.	Target gene	dsRNA no.	z-score, replicate 1	z-score, replicate 2	phenotype, replicate 1
23	Amy-p (Amylase proximal)	1	0.22	0.22	
24	Gfat1 (Glutamine:fructose-6-phosphate aminotransferase 1)	1	0.64	0.26	
25	mr (morula)	1	-0.02	0.26	
26	mr (morula)	2	0.1	-0.12	
27	CG5906	1	-0.11	0.06	
28	Svip (small VCP interacting protein)	1	0.39	0.38	
29	CG7601	1	0.51	0.39	
30	CG14990	1	-0.15	0.04	
31	CG13295	1	0.56	0.41	
32	DCTN4-p62 (Dynactin 4, p62 subunit)	1	0.49	0.38	
33	nenya	1	0.1	0.19	
